The campaign covered roughly 300,000 compounds. About 5,400 (1.8%) were called active. Inconclusive means that the source gave no clear call. Such entries were picked first, then a sample of the others. The call rests on the fitted dose curve; tested in HEK293 cells. Potencies of inconclusive entries are doubtful fits and often do not repeat.
Assay: qHTS for inhibitors of binding or entry into cells for Marburg Virus
Settings: Marburg virus pseudotyped entry inhibition, cell reporter; series mostly up to 37.8 µM
Potency means the concentration at half of the fitted maximal effect.

Row | SMILES | Potency
1 | Cc1ccc(S(=O)(=O)n2cnc3cc([N+](=O)[O-])ccc32)cc1C | inactive
2 | Cc1ccc2c(c1)-c1nc(-c3ccccc3)cc(-c3ccccc3)c1CO2 | inconclusive: 2.51 µM [inhibitor, full curve, poor fit]
3 | CCCN(CCC)S(=O)(=O)c1ccc(C(=O)N2CCC(=O)c3ccccc32)cc1 | inactive
4 | CCCCOc1ccc(C(=O)N/N=C/c2ccc(OCCN3CCCCC3)c(OC)c2)cc1 | inconclusive: 35.5 µM [inhibitor, single point]
5 | OCCNc1ncnc2c1nnn2Cc1ccccc1 | inactive
6 | COc1ccc(OCC(O)Cn2c(=N)n(CCN3CCOCC3)c3ccccc32)cc1 (stereo not drawn) | inconclusive: 3.16 µM [inhibitor, partial curve, poor fit]
7 | CCc1ccc(-c2nc(CN3CCCC(C(=O)NCc4ccccc4Cl)C3)c(C)o2)cc1 (stereo not drawn) | inactive
8 | NC1=NC2CS(=O)(=O)CC2S1 (stereo not drawn) | inconclusive: 6.31 µM [activator, partial curve]
9 | CCOC(=O)CSc1nc(CC)nc2ccccc12 | inactive
10 | CCc1ccc(Nc2nnc(SCC(=O)Nc3cccnc3Cl)s2)cc1 | inactive
11 | COc1ccc(NC(=O)Nc2ccc(Cc3ccncc3)cc2)c(OC)c1 | inactive
12 | CC(Oc1ccc(Br)cc1)C(=O)Nc1ccc(N2CCOCC2)cc1N1CCOCC1 (stereo not drawn) | inactive
13 | Cc1cccc(NC(=O)c2ccc(OCC(=O)NCc3ccccc3)cc2)c1C | inconclusive: 16.4 µM [inhibitor, partial curve, poor fit]
14 | CCCN1CCN(CCCNC(=O)c2cc3c(=O)[nH]c4ccccc4c3s2)CC1 | inconclusive: 10 µM [inhibitor, partial curve, poor fit]
15 | COc1ccccc1Cn1nnc2c(=O)[nH]c(C3CCN(C(=O)c4ccc(C)cc4)CC3)nc21 | inactive
16 | CCOc1ccccc1Nc1nc(-c2sc(NC(=O)c3ccccc3)nc2C)cs1 | inactive
17 | Cc1ccc(NC(=O)N(C2=NCC(C)S2)c2ccccc2)cc1 (stereo not drawn) | inconclusive: 29.1 µM [activator, single point]
18 | COc1ccc(NC(=O)CNC(=O)Cn2ccc3ccccc3c2=O)c(OC)c1 | inconclusive: 35.5 µM [inhibitor, single point]
19 | Nc1c(C(=O)N2CCOCC2)sc2nc3c(cc12)CCCC3 | inconclusive: 3.16 µM [inhibitor, full curve, poor fit]
20 | CCCCCOc1ccc(C(=O)CCN2CCOCC2)cc1 | inconclusive: 6.31 µM [activator, single point]
21 | COc1ccc(C(=O)Nc2ccccc2)cc1NC(=O)c1ccc([N+](=O)[O-])cc1 | inconclusive: 0.562 µM [inhibitor, full curve, poor fit]
22 | CCCCCOc1ccc(NC(=O)C(=O)NCCC2=CCCCC2)cc1 | inactive
23 | COc1ccc([N+](=O)[O-])cc1-n1cnnn1 | inactive
24 | CC1CN(C(=O)c2ccc(CNS(=O)(=O)c3cccc(C(F)(F)F)c3)cc2)CC(C)O1 (stereo not drawn) | active: 12.6 µM
25 | N#CC(C#N)=C1C=CC=CN1/C(=C\c1ccco1)C(=O)c1ccc(Cl)cc1 | inconclusive: 8.91 µM [inhibitor, partial curve, poor fit]

Row | SMILES | Potency
26 | CCN(CC)c1ccc(NC(=O)c2cccc(F)c2)c(C)c1 | inconclusive: 7.3 µM [inhibitor, partial curve, poor fit]
27 | Cc1cc(=O)[nH]c(N/N=C/c2ccc(Br)s2)n1 | inconclusive: 0.708 µM [inhibitor, full curve, poor fit]
28 | COc1cccc(NC(=O)C2CCN(Cc3cnn(-c4ccccc4)c3-n3cccc3)CC2)c1 | inconclusive: 8.2 µM [inhibitor, partial curve, poor fit]
29 | COc1ccc(-c2nc(-c3ccccc3)c(-c3cccs3)[nH]2)cc1OC | inconclusive: 16.4 µM [inhibitor, single point]
30 | CC(=O)OC1CCC2(C)C(COc3ccc4ccc(=O)oc4c3)C(C)(O)CCC2C1(C)C (stereo not drawn) | inconclusive: 12.6 µM [inhibitor, partial curve, poor fit]
31 | N#CCCN1CCN(C(=S)c2ccc(-c3ccc(Cl)c(Cl)c3)o2)CC1 | active: 14.1 µM
32 | CCCCCOC(=O)C1=C(C)N(C)C(=O)NC1c1cc(Br)c(O)c(OC)c1 (stereo not drawn) | inactive
33 | N#Cc1nc(-c2cccs2)oc1N1CCN(Cc2ccccc2)CC1 | inconclusive: 8.2 µM [inhibitor, partial curve]
34 | CCOc1cc(CNC(=O)c2cc(-c3ccc(Cl)s3)nc3ccccc23)ccc1OC | inactive
35 | Nc1c(-c2cccs2)cnn1-c1nc(-c2ccc(Cl)cc2Cl)cs1 | inconclusive: 0.082 µM [inhibitor, full curve, poor fit]
36 | CCOC(=O)c1ccc(NC(=O)CSc2nnc(Cc3cccs3)n2C)cc1 | inactive
37 | CCc1ccc(NC(=O)C2CCN(c3ccc(Sc4ccc(C)cc4)nn3)CC2)cc1 | inactive
38 | Cc1ccc(-c2cc(C(=O)Nc3cc(C)ccc3C)[nH]n2)c(O)c1 | inconclusive: 29.1 µM [activator, single point]
39 | O=C(NC(=S)Nc1ccccc1N1CCOCC1)c1ccc(-c2cccc(Cl)c2)o1 | inactive
40 | CC1=NN(C(N)=S)C(=O)C1N=Nc1ccc(C)cc1C (stereo not drawn) | inactive
41 | COc1ccc(/C=C2\SC(=O)N(CCCC(=O)Nc3cc(Cl)ccc3C(=O)O)C2=O)cc1 | active: 1.26 µM
42 | O=C(Nc1ccc(Cl)cc1)c1cccs1 | inactive
43 | COc1ccc2cc(C(c3nnnn3C3CCCC3)N3CCCCCC3)c3nnnn3c2c1 (stereo not drawn) | inconclusive: 31.6 µM [activator, single point]
44 | O=C(Nc1cccc(Cl)c1)c1cc(-c2ccco2)on1 | inactive
45 | COc1cccc(OCCn2c(-c3ccc(Cl)cc3)nc3ccccc3c2=O)c1 | inactive
46 | Cc1cc(C)nc(Sc2ccc([N+](=O)[O-])cc2[N+](=O)[O-])n1 | inconclusive: 35.5 µM [inhibitor, single point]
47 | Cc1ccccc1-c1nc(CS(=O)(=O)CC(=O)NCc2ccco2)c(C)o1 | inactive
48 | CC(=O)c1ccc(S(=O)(=O)N2CCN(C(=O)CCC3CCCC3)CC2)cc1 | inactive
49 | Cc1ccc(-c2noc(CCC(=O)NC3CCN(Cc4ccccc4)CC3)n2)cc1 | inconclusive: 14.1 µM [inhibitor, single point]
50 | O=C1[C@H]2[C@H]3[C@H](O)[C@H](O)C/C(=N\OCc4ccccc4)[C@@H]3CC[C@H]2C(=O)N1Cc1ccc2c(c1)OCO2 | inactive

Row | SMILES | Potency
51 | CCN(CC)C(=O)Oc1ccccc1NC(C)=O | inactive
52 | c1ccc(C(c2ccccc2)N2CCN(Cc3nnnn3C3CCCCC3)CC2)cc1 | inconclusive: 11.6 µM [inhibitor, partial curve, poor fit]
53 | O=C(Nc1ccccc1)ON=C1CCCC1 | inactive
54 | COc1ccc(C2Nc3ccccc3C(=O)N2NS(=O)(=O)c2ccc(C)cc2)cc1OC (stereo not drawn) | inactive
55 | COCCCNc1oc(-c2ccc(COc3ccccc3C)o2)nc1C#N | inconclusive: 31.6 µM [inhibitor, partial curve, poor fit]
56 | N#CCCNC(=O)CCN1CCOCC1 | inconclusive: 0.316 µM [inhibitor, partial curve, poor fit]
57 | Cc1ccc(Oc2ccc(S(=O)(=O)N3CCOCC3)cc2C(N)=O)c(-n2nc3ccccc3n2)c1 | inconclusive: 3.16 µM [inhibitor, full curve]
58 | Cc1cccc(Nc2n[nH]c(=S)s2)c1C | inactive
59 | CCC(=O)c1cn(CC(=O)Nc2ccc(C)cc2C)c2ccccc12 | inconclusive: 35.5 µM [inhibitor, single point]
60 | Cc1ccc(S(=O)(=O)n2cnc3ccccc32)c(C)c1 | inconclusive: 2.51 µM [activator, partial curve, poor fit]
61 | CC(C)(C)CC(=O)Nc1ccccc1N1CCN(c2ccccc2)CC1 | inconclusive: 11.2 µM [inhibitor, partial curve, poor fit]
62 | CSCc1ccc(C(=O)NCc2ccccc2)cc1 | inconclusive: 0.355 µM [activator, full curve, poor fit]
63 | Cc1ccc(-c2csc3nc[nH]c(=O)c23)cc1 | inactive
64 | C/C(Cc1ccccc1)=N\NC(=O)CNC(=O)c1ccc(Cl)cc1Cl | inconclusive: 6.31 µM [inhibitor, single point]
65 | CCOC(=O)c1sc(C)c2c1NC1(CCCCCC1)NC2=O | inconclusive: 2.82 µM [activator, partial curve, poor fit]
66 | O=C(N/N=C\c1cn[nH]c1-c1ccccc1)c1ccc([N+](=O)[O-])cc1 | inconclusive: 31.6 µM [activator, single point]
67 | O=C1NN(c2ccccc2)C(=O)/C1=C\c1ccccc1 | inconclusive: 3.98 µM [inhibitor, partial curve, poor fit]
68 | O=C(NNC(=O)c1cc(-c2ccccc2)n(-c2ccccc2)n1)c1cccc([N+](=O)[O-])c1 | inactive
69 | Cc1ccc(C)c(OCCCC(=O)N2CCOCC2)c1 | inactive
70 | COc1ccc(C)c2sc(N(CCCN(C)C)C(=O)CS(=O)(=O)c3ccc(F)cc3)nc12 | inconclusive: 22.4 µM [inhibitor, single point]
71 | COc1cc(NC(=O)c2cc(-c3ccccc3Cl)on2)cc(OC)c1OC | inconclusive: 3.98 µM [inhibitor, partial curve, poor fit]
72 | Cc1ccc2nsnc2c1S(=O)(=O)N(Cc1cc2cccc(C)c2[nH]c1=O)CC1CCCO1 (stereo not drawn) | inconclusive: 4.11 µM [inhibitor, partial curve, poor fit]
73 | Cc1cccc(NC(=O)c2cccc(NC(=O)c3ccccc3)c2)n1 | inconclusive: 35.5 µM [inhibitor, single point]

18 compounds out of the list, ordered by molecular weight, ascending:
Row | SMILES | Potency
56 | N#CCCNC(=O)CCN1CCOCC1 | inconclusive: 0.316 µM [inhibitor, partial curve, poor fit]
58 | Cc1cccc(Nc2n[nH]c(=S)s2)c1C | inactive
63 | Cc1ccc(-c2csc3nc[nH]c(=O)c23)cc1 | inactive
51 | CCN(CC)C(=O)Oc1ccccc1NC(C)=O | inactive
67 | O=C1NN(c2ccccc2)C(=O)/C1=C\c1ccccc1 | inconclusive: 3.98 µM [inhibitor, partial curve, poor fit]
69 | Cc1ccc(C)c(OCCCC(=O)N2CCOCC2)c1 | inactive
60 | Cc1ccc(S(=O)(=O)n2cnc3ccccc32)c(C)c1 | inconclusive: 2.51 µM [activator, partial curve, poor fit]
65 | CCOC(=O)c1sc(C)c2c1NC1(CCCCCC1)NC2=O | inconclusive: 2.82 µM [activator, partial curve, poor fit]
73 | Cc1cccc(NC(=O)c2cccc(NC(=O)c3ccccc3)c2)n1 | inconclusive: 35.5 µM [inhibitor, single point]
59 | CCC(=O)c1cn(CC(=O)Nc2ccc(C)cc2C)c2ccccc12 | inconclusive: 35.5 µM [inhibitor, single point]
66 | O=C(N/N=C\c1cn[nH]c1-c1ccccc1)c1ccc([N+](=O)[O-])cc1 | inconclusive: 31.6 µM [activator, single point]
61 | CC(C)(C)CC(=O)Nc1ccccc1N1CCN(c2ccccc2)CC1 | inconclusive: 11.2 µM [inhibitor, partial curve, poor fit]
64 | C/C(Cc1ccccc1)=N\NC(=O)CNC(=O)c1ccc(Cl)cc1Cl | inconclusive: 6.31 µM [inhibitor, single point]
68 | O=C(NNC(=O)c1cc(-c2ccccc2)n(-c2ccccc2)n1)c1cccc([N+](=O)[O-])c1 | inactive
54 | COc1ccc(C2Nc3ccccc3C(=O)N2NS(=O)(=O)c2ccc(C)cc2)cc1OC (stereo not drawn) | inactive
70 | COc1ccc(C)c2sc(N(CCCN(C)C)C(=O)CS(=O)(=O)c3ccc(F)cc3)nc12 | inconclusive: 22.4 µM [inhibitor, single point]
72 | Cc1ccc2nsnc2c1S(=O)(=O)N(Cc1cc2cccc(C)c2[nH]c1=O)CC1CCCO1 (stereo not drawn) | inconclusive: 4.11 µM [inhibitor, partial curve, poor fit]
57 | Cc1ccc(Oc2ccc(S(=O)(=O)N3CCOCC3)cc2C(N)=O)c(-n2nc3ccccc3n2)c1 | inconclusive: 3.16 µM [inhibitor, full curve]
